Assay results: PubChem BioAssay AID2685 (National Center for Advancing Translational Sciences (NCATS), 2010)
Some of the results follow. Shown are side measurements of this screen, not its main read-out; they come without a call. The list favours compounds with an active or inconclusive main result. The note in brackets gives the kind of curve behind each potency; many fits are weak.

Test: qHTS Assay for Lipid Storage Modulators in Drosophila S3 Cells;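 as to cell number change: cells counted by Cell Tracker Red CMTPX staining in the red channel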
Conditions: BODIPY lipid droplet fluorescence, 18-24 h; for cell number change: measured here: cell count max response, cells fed with added oleic acid
Outline: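 Laser-scanning cytometry quantifies lipid droplet accumulation (500–530 nm total intensity; droplet/cell object ratio) in oleic acid-fed (400 uM added) Drosophila S3 cells treated with a concentration series. 20 uM Triacsin C defined 100% inhibition.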

[1] = measured here: cell number channel AC50, cells fed with added oleic acid
[2] = measured here: lipid fluorescence (Fed channel) AC50, cells fed with added oleic acid

Structure (SMILES) | cell number change [%] | AC50 [1] | AC50 [2]
COc1cc(Br)c(C(=O)c2nccc3cc(OC)c(OC)cc23)cc1OC | -34 | 9.2 µM [falling, partial curve] | 0.651 µM [falling, partial curve, poor fit]
O=C(c1cc(-c2ccc(F)cc2)on1)N1CCN(c2ccc(F)cc2)CC1 | 10 |  | 29.1 µM [rising, single point]
COc1ccc(C2CN=NC23CCCc2ccccc2C3=O)cc1 (configuration not stated) | -11.2 |  | 
Cn1c(N2CCCC2)nc2c1c(=O)[nH]c(=O)n2C | -36.8 | 11.6 µM [falling, partial curve, poor fit] | 
CC(=O)Nc1cc[n+](C(C)C(=O)c2ccc(Br)cc2)cc1 (configuration not stated) | 17.5 |  | 6.51 µM [falling, single point]
Cc1cc(C(=O)OCC(=O)N2CC(C)OC(C)C2)c2ccccc2n1 (configuration not stated) | 66.6 | 6.51 µM [rising, full curve] | 
N#Cc1cccc(S(=O)(=O)NCCOc2ccccc2F)c1 | 24.8 |  | 29.1 µM [rising, single point]
COc1ccc(C(=O)c2cc3ccc(O)cc3oc2=O)cc1 | -1.54 |  | 6.51 µM [falling, single point]
CCOC(=O)CSc1nc(C(C)C)nc2ccccc12 |  |  | 0.0651 µM [falling, full curve, poor fit]
O=S(=O)(c1ccccc1)N1CN(Cc2ccc(F)cc2)c2nc3ccccc3nc21 | -9.5 |  | 2.31 µM [rising, partial curve]
O=C(O)/C(=C\c1c(C(=O)O)[nH]c2cc(Cl)cc(Cl)c12)c1ccccc1 |  |  | 2.06 µM [falling, partial curve, poor fit]
COC(=O)C1=C(C)N(CCc2ccccc2)C(=O)/C1=C\c1ccco1 | -36.4 | 29.1 µM [falling, single point] | 0.291 µM [falling, full curve]
CC(C)C[C@H]1CN=C(N(C)C)N1CC1CCCC1 | 25.3 |  | 25.9 µM [rising, single point]
CC[N+]1=C(C)C(C)(C)c2cc(C)ccc21 |  |  | 0.731 µM [falling, full curve]
CC(C)NC(=S)N(C)C1(c2ccccc2Cl)CCCCC1=O (configuration not stated) | -15.6 | 6.51 µM [falling, single point] | 11.6 µM [falling, partial curve]
Oc1ccc(/C=N/N(Cc2ccccc2)c2ccccc2)cc1 | -47.1 | 18.4 µM [falling, single point] | 29.1 µM [falling, single point]
CC(=O)OC1COC(n2ccc3cc([N+](=O)[O-])ccc32)C(OC(C)=O)C1OC(C)=O (configuration not stated) | -0.956 |  | 3.26 µM [rising, single point]
CCN(CC)S(=O)(=O)c1cc(NC(=O)Cc2n[nH]c(=O)c3ccccc23)ccc1C | -1.05 | 1.64 µM [rising, single point] | 2.59 µM [rising, single point]
Nc1c(N=Nc2cccc(Cl)c2)c(=O)[nH]n1-c1ccccc1 | -47.3 | 23.1 µM [falling, single point] | 

Gathered by group: the compounds so far with a carbonyl joined to an NH by a bond outside any ring.
Structure (SMILES) | cell number change [%] | AC50 [1] | AC50 [2]
CC(=O)Nc1cc[n+](C(C)C(=O)c2ccc(Br)cc2)cc1 (configuration not stated) | 17.5 |  | 6.51 µM [falling, single point]
CCN(CC)S(=O)(=O)c1cc(NC(=O)Cc2n[nH]c(=O)c3ccccc23)ccc1C | -1.05 | 1.64 µM [rising, single point] | 2.59 µM [rising, single point]

Remaining list, next part:

Structure (SMILES) | cell number change [%] | AC50 [1] | AC50 [2]
Cn1nc(C(=O)N2CCN(c3ccccc3F)CC2)c2c1-c1ccccc1S(=O)(=O)C2 | 14.9 |  | 
CCCC(=O)Nc1sc(C)c(-c2ccc(C(C)CC)cc2)c1C#N (configuration not stated) | 9.77 |  | 18.4 µM [rising, partial curve, poor fit]
Cc1ccccc1-n1c(N)cc(=O)[nH]c1=S | -28.8 | 0.651 µM [falling, full curve] | 2.06 µM [falling, full curve]
CCc1ccccc1NC(=O)CN1C(=O)c2ccccc2S1(=O)=O | -15.8 |  | 
O=[N+]([O-])c1cccc(-n2nncc2-c2ccccc2)c1 | 17.9 |  | 0.58 µM [falling, single point]
CCOC(=O)C(=Cc1ccccc1OC)C(=O)OCC | -7.79 |  | 23.1 µM [falling, partial curve, poor fit]
O=C(O)c1ccc(/C=N/NC(=O)c2cc(-c3ccc4c5c(cccc35)CC4)n[nH]2)cc1 |  |  | 0.146 µM [falling, full curve, poor fit]
O=C(CNc1ccc(Br)cc1)Nc1ccc(S(=O)(=O)N2CCCC2)cc1 | -64.4 | 16.4 µM [falling, partial curve] | 0.259 µM [falling, full curve, poor fit]
CCOc1ccccc1NC(=O)N1CCC(C(=O)c2ccc(F)cc2)CC1 | 59.1 | 0.92 µM [rising, partial curve] | 0.259 µM [rising, full curve, poor fit]
Cc1c(-n2c(SCC(=O)NC(C)C(C)C)nc3ccccc3c2=O)c(=O)n(-c2ccccc2)n1C (configuration not stated) | 44.5 | 4.11 µM [rising, full curve, poor fit] | 
O=C(NCc1cccnc1)c1csc2c1CCCC2 |  | 1.46 µM [rising, full curve] | 0.651 µM [falling, single point]
CCc1ccc(NC(=O)CSc2nc(O)cc(=O)n2C2CCCC2)cc1 | 38.6 | 29.1 µM [rising, single point] | 
Clc1cccc(Cl)c1OCCCCN1CCCCC1 | 42.6 | 18.4 µM [rising, partial curve, poor fit] | 
CN1C(=O)C(CC(=O)Nc2ccc(F)cc2)N(NC(=O)c2cccc(F)c2)C1=S (configuration not stated) | -9.9 |  | 18.4 µM [falling, partial curve]
COc1ccc(-c2cc(C(=O)NCC3CCCO3)c3ccccc3n2)cc1 (configuration not stated) | 20.5 | 0.92 µM [rising, full curve, poor fit] | 1.03 µM [rising, full curve, poor fit]
COC(=O)C(NC(=O)CCC(=O)NC(C(=O)OC)c1ccccc1)c1ccccc1 (configuration not stated) | 10 |  | 29.1 µM [rising, single point]
O=C(COC(=O)c1ccc(F)cc1F)Nc1ncccn1 | -45.4 | 3.66 µM [falling, full curve] | 3.66 µM [falling, full curve]
CC(C)(C)c1cc(C(=O)NCc2cc(F)cc3c2OCOC3)n(Cc2ccccc2)n1 | 13.2 |  | 2.06 µM [rising, partial curve]
CC1CCCCN1Cc1nc2c(c(=O)n(C)c(=O)n2C)n1Cc1c(F)cccc1Cl (configuration not stated) | 14.5 |  | 0.461 µM [rising, full curve, poor fit]

Structure (SMILES) | cell number change [%] | AC50 [1] | AC50 [2]
Cc1cccc(-n2c(-c3ccoc3C)n[nH]c2=S)c1 | -36.9 | 29.1 µM [falling, single point] | 23.1 µM [falling, partial curve]
CCCCC(=O)Nc1ccc(C(=O)N2CCC(C(=O)OCC)CC2)cc1 | 70.1 | 29.1 µM [rising, single point] | 0.164 µM [falling, full curve, poor fit]
CCNc1nc(NC(C)CC)nc(Oc2ccc(=O)[nH]n2)n1 (configuration not stated) | 12.1 |  | 
NC(=O)CC(NC(=O)c1ccc(Br)cc1)c1ccc(N2CCCCCCC2)c([N+](=O)[O-])c1 (configuration not stated) | -46 | 16.4 µM [falling, single point] | 29.1 µM [falling, single point]
S=C(c1cccs1)N1CCCC1 |  | 0.00461 µM [falling, full curve, poor fit] | 1.84 µM [falling, partial curve]
CCOC(=O)C1CCCN(S(=O)(=O)c2ccc(OC)cc2)C1 (configuration not stated) | -26 |  | 0.206 µM [falling, full curve, poor fit]
CCCN(C(=O)c1ccc(OCC(C)C)cc1)c1c(N)n(Cc2ccccc2)c(=O)[nH]c1=O | -31 | 7.31 µM [falling, partial curve] | 
Cc1cc(C)cc(NC(=O)CN2CCC(NC(=O)Cc3ccccc3)CC2)c1 | 12.5 |  | 32.6 µM [rising, single point]
Cc1ccccc1-c1nc(C(=O)NCC2CCCO2)cc2c1[nH]c1ccccc12 (configuration not stated) | 9.71 |  | 29.1 µM [falling, single point]
COc1ccc(S(=O)(=O)Nc2cccc(SC)c2)cc1C(=O)N1CCOCC1 | 18.4 |  | 
COc1cccc2c(=O)c(C(=O)O)c[nH]c12 | 46.6 | 16.4 µM [rising, partial curve] | 
COc1ccc(CN2C(=O)c3cccnc3C2Nc2ccc(C)cc2)cc1 (configuration not stated) |  | 0.92 µM [rising, full curve] | 1.03 µM [rising, full curve]
CCCC1(C(=O)OC)NC(c2ccco2)C2C(=O)N(C)C(=O)C21 (configuration not stated) | -55.2 | 23.1 µM [falling, single point] | 18.4 µM [falling, single point]
Cc1nc(-c2c(C(F)(F)F)noc2-c2ccc(O)cc2O)cs1 | -28.4 |  | 32.6 µM [falling, single point]
CC(NC(=O)Nc1ccc(F)cc1)C(c1cccs1)N1CCCC1 (configuration not stated) | 40.2 | 29.1 µM [rising, partial curve, poor fit] | 
CCN(CC)C(=O)CN(c1cc2c(cc1OC)oc1ccccc12)S(=O)(=O)c1ccccc1 | 35.3 | 0.58 µM [rising, full curve, poor fit] | 
Cc1ccccc1CSc1nncn1N | 9.47 |  | 4.61 µM [falling, full curve, poor fit]
O=C(O)CCC1(C(=O)O)OCCc2ccccc21 (configuration not stated) |  | 6.51 µM [falling, single point] | 1.64 µM [falling, partial curve]
